Source: article PMC5582858, “The yeast kinesin-5 Cin8 interacts with the microtubule in a noncanonical manner” (The Journal of Biological Chemistry, 2017)
These are yes or no findings as the source states them, for the method shown. Binding can be weak; no strength is given. Sequences can lack the tags named with a protein.

Experiments:
[1] = target: Paclitaxel-stabilized microtubules (bovine brain αβ-tubulin) (bovine); assay: co-sedimentation; all Cin8 constructs with paclitaxel-stabilised microtubules, no added nucleotide (supplemental Fig. S5); ionic strength for these constructs not given; both purified
[2] = target: Paclitaxel-stabilized microtubules (bovine brain αβ-tubulin) (bovine); assay: co-sedimentation; competition: increasing Eg5 added to Cin8·microtubule at 4:1, 60 min at 298 K before centrifugation; both purified
[3] = target: Paclitaxel-stabilized microtubules (bovine brain αβ-tubulin) (bovine); assay: co-sedimentation; 0.25–4 μM Cin8-trx at fixed 0.25 μM microtubules, 20 μM paclitaxel, no added nucleotide, low and high ionic strength; both purified
[4] = target: Paclitaxel-stabilized microtubules (bovine brain αβ-tubulin) (bovine); assay: co-sedimentation; competition: 0–12 μM Eg5 added to 2 μM Cin8-trx and 2 μM microtubules (1:1), 60 min at 298 K before centrifugation, low ionic strength; both purified
[5] = target: Paclitaxel-stabilized microtubules (bovine brain αβ-tubulin) (bovine); assay: co-sedimentation; 3 μM Cin8, 1 μM microtubules, no added nucleotide or 1 mM ATP, ADP or AMPPNP, low and high ionic strength; SDS-PAGE of supernatant and pellet; both purified
[6] = target: Paclitaxel-stabilized microtubules (bovine brain αβ-tubulin) (bovine); assay: stopped-flow light scattering; 0.5 or 2.5 μM kinesin rapidly mixed with 0.5 μM microtubules (1:1 or 5:1), low ionic strength, 298 K, 340 nm at 90°; both purified
[7] = target: Paclitaxel-stabilized microtubules (bovine brain αβ-tubulin) (bovine); assay: cryo-electron microscopy (micrographs); Cin8-His with microtubules, apyrase added after complex formation (no-nucleotide state), low ionic strength, Cin8 molar ratios down to 0.5×; both purified
[8] = target: Paclitaxel-stabilized microtubules (bovine brain αβ-tubulin) (bovine); assay: cryo-EM structure; Cin8-His in the ADP·AlFx state at ∼0.9× molar ratio with 2 μM paclitaxel microtubules, SB buffer diluted in water; helical reconstruction of 13-protofilament microtubules, ∼7 Å; both purified

B1: Cin8-trxΔR (like Cin8-trx, without the Arg9 tag) (domain or fragment, UniProt P27895 70-535)
chain: ISINTTGDTGITAQMNAKRYTVDKVFGPGASQDLIFDEVAGPLFQDFIKGYNCTVLVYGMTSTGKTYTMTGDEKLYNGELSDAAGIIPRVLLKLFDTLELQQNDYVVKCSFIELYNEELKDLLDSNSNGSSNTGFDGQFMKKLRIFDSSTANNTTSNSASSSRSNSRNSSPRSLNDLTPKAALLRKRLRTKSLPNTIKQQYQQQQAVNSRNNSSSNSGSTTNNASSNTNTNNGQRSSMAPNDQTNGIYIQNLQEFHITNAMEGLNLLQKGLKHRQVASTKMNDFSSRSHTIFTITLYKKHQDELFRISKMNLVDLAGSENINRSGALNQRAKEAGSINQSLLTLGRVINALVDKSGHIPFRESKLTRLLQDSLGGNTKTALIATISPAKVTSEETCSTLEYASKAKNIKNKPQLGSFIMKDILVKNITMELAKIKSDLLSTKSKEGIYMSQDHYKNLNSDLESYKN
For B1, the binding [1] was “binds”.

B2: Cin8-tagless (Cin8 motor domain after removal of the purification tags with TEV protease) (domain or fragment, UniProt P27895 70-535)
chain: B1 chain
B2 was tested, and the binding [1] was “binds”.

B3: Cin8-trx (Cin8 motor domain, residues 70–535, fused to N-terminal thioredoxin (TrxA), His6, TEV cleavage and Arg9 tags) (domain or fragment, UniProt P27895 70-535)
chain: B1 chain
For B3, the binding [2] was “binds”, the binding [3] was “binds” and the binding [4] was “binds”. For the same binder, the binding [5] was “binds”.

B4: Cin8-His (S. cerevisiae kinesin-5 Cin8 motor domain, residues 70–535, with N-terminal His6 and TEV cleavage tags) (domain or fragment, UniProt P27895 70-535)
chain: B1 chain
For B4, the binding [6] was “binds”, the binding [7] was “binds” and the binding [8] was “binds”.
